Record: PubChem BioAssay AID686943 (Drosophila RNAi Screening Center, 2013)
The deposit covers about 23,000 reagents; shown is an unselected part of those that have a named target and a result. 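Extra replicates exist only for a retested subset of genes; insulin dose and duration not given; both raised and lowered dpERK matter.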 A plus sign joins genes that one reagent is predicted to hit. Further read-outs or replicates are left out here. No sequences are given here. Not stated in the record: the amount of reagent, the time to read-out.

Purpose: 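Search across the genome for regulators of signalling from receptor tyrosine kinase to ERK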 (primary screen)
Cells: Drosophila S2R+ haemocyte-like cells expressing YFP-tagged ERK (Rolled)
Knock-down reagent: long dsRNA against Drosophila genes
Treatment: insulin stimulation versus unstimulated cells; dose and duration not given
Detection: 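Per-plate z-scores of phospho-ERK immunostaining normalised to YFP-tagged ERK, measured with and without insulin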
Scale: replicate 1, z-score of dpERK with insulin and replicate 2, z-score of dpERK with insulin: higher = more active ERK per ERK-YFP after insulin

CG4829 (GeneID 32672) [DRSC19920]: replicate 1, z-score of dpERK with insulin = -0.66; replicate 2, z-score of dpERK with insulin = -0.92
CG10877 (GeneID 42432) [DRSC14274]: replicate 1, z-score of dpERK with insulin = -0.17; replicate 2, z-score of dpERK with insulin = 0.51
CG2004 (GeneID 31809) [DRSC18200]: replicate 1, z-score of dpERK with insulin = 0.93; replicate 2, z-score of dpERK with insulin = 0.75
lectin-24A (GeneID 53543) [DRSC00604]: replicate 1, z-score of dpERK with insulin = -0.18; replicate 2, z-score of dpERK with insulin = 0.09
CG32772 (GeneID 31420) [DRSC18052]: replicate 1, z-score of dpERK with insulin = -5.25; replicate 2, z-score of dpERK with insulin = 1.24
CG32772 (GeneID 31420) [DRSC18406]: replicate 1, z-score of dpERK with insulin = 0.59; replicate 2, z-score of dpERK with insulin = 0.97
CG32772 (GeneID 31420) [DRSC22349]: replicate 1, z-score of dpERK with insulin = -0.03; replicate 2, z-score of dpERK with insulin = 0.3
eIF4E4 (GeneID 38743) [DRSC09701]: replicate 1, z-score of dpERK with insulin = -1.41; replicate 2, z-score of dpERK with insulin = -2.01
gus (GeneID 35478) [DRSC04885]: replicate 1, z-score of dpERK with insulin = 0.09; replicate 2, z-score of dpERK with insulin = -0.1
gus (GeneID 35478) [DRSC04886]: replicate 1, z-score of dpERK with insulin = 0.05; replicate 2, z-score of dpERK with insulin = -1.38
mirr (GeneID 39441) [DRSC11369]: replicate 1, z-score of dpERK with insulin = -0.7; replicate 2, z-score of dpERK with insulin = -0.73
FBXO11 (GeneID 41209) [DRSC16497]: replicate 1, z-score of dpERK with insulin = 0.36; replicate 2, z-score of dpERK with insulin = 0.22
Svip (GeneID 317834) [DRSC08982]: replicate 1, z-score of dpERK with insulin = 0; replicate 2, z-score of dpERK with insulin = 0
CG14339 (GeneID 33286) [DRSC00369]: replicate 1, z-score of dpERK with insulin = -0.92; replicate 2, z-score of dpERK with insulin = 0.18
Lst (GeneID 36853) [DRSC07146]: replicate 1, z-score of dpERK with insulin = 1.07; replicate 2, z-score of dpERK with insulin = 0.3
CG11854 (GeneID 43037) [DRSC14409]: replicate 1, z-score of dpERK with insulin = 1.21; replicate 2, z-score of dpERK with insulin = 0.24
CG30031 + deltaTry + CG30025 + 1 more [DRSC21262]: replicate 1, z-score of dpERK with insulin = -1.16; replicate 2, z-score of dpERK with insulin = 0.09
CG17633 (GeneID 34297) [DRSC02631]: replicate 1, z-score of dpERK with insulin = 0.28; replicate 2, z-score of dpERK with insulin = 0.48
PEK (GeneID 40653) [DRSC12361]: replicate 1, z-score of dpERK with insulin = 0.31; replicate 2, z-score of dpERK with insulin = 0.37
CG32365 (GeneID 38876) [DRSC10040]: replicate 1, z-score of dpERK with insulin = 0.49; replicate 2, z-score of dpERK with insulin = 1.12
CG32365 (GeneID 38876) [DRSC10041]: replicate 1, z-score of dpERK with insulin = -6.13; replicate 2, z-score of dpERK with insulin = -2.99
CG32365 (GeneID 38876) [DRSC10977]: replicate 1, z-score of dpERK with insulin = -7.21; replicate 2, z-score of dpERK with insulin = -4.14
rumpel (GeneID 31674) [DRSC18436]: replicate 1, z-score of dpERK with insulin = -0.24; replicate 2, z-score of dpERK with insulin = 0.15
Spt-I (GeneID 36448) [DRSC06860]: replicate 1, z-score of dpERK with insulin = 1.18; replicate 2, z-score of dpERK with insulin = 0.44
CG12374 (GeneID 36410) [DRSC06143]: replicate 1, z-score of dpERK with insulin = -0.04; replicate 2, z-score of dpERK with insulin = 0.37
Tcs4 (GeneID 32982) [DRSC19587]: replicate 1, z-score of dpERK with insulin = 0.08; replicate 2, z-score of dpERK with insulin = -0.21
CG12674 (GeneID 33384) [DRSC00348]: replicate 1, z-score of dpERK with insulin = 0.15; replicate 2, z-score of dpERK with insulin = 0.55
CG7166 (GeneID 40401) [DRSC11809]: replicate 1, z-score of dpERK with insulin = -0.46; replicate 2, z-score of dpERK with insulin = -0.36
Nup62 (GeneID 36830) [DRSC06970]: replicate 1, z-score of dpERK with insulin = -0.09; replicate 2, z-score of dpERK with insulin = -0.06
Yeti (GeneID 7354404) [DRSC21138]: replicate 1, z-score of dpERK with insulin = 0.85; replicate 2, z-score of dpERK with insulin = 0.1
CG4377 (GeneID 37489) [DRSC04467]: replicate 1, z-score of dpERK with insulin = -0.48; replicate 2, z-score of dpERK with insulin = -0.22

A run of entries of the results above:
FBXO11 (GeneID 41209) [DRSC16497]: replicate 1, z-score of dpERK with insulin = 0.36; replicate 2, z-score of dpERK with insulin = 0.22
Svip (GeneID 317834) [DRSC08982]: replicate 1, z-score of dpERK with insulin = 0; replicate 2, z-score of dpERK with insulin = 0
CG14339 (GeneID 33286) [DRSC00369]: replicate 1, z-score of dpERK with insulin = -0.92; replicate 2, z-score of dpERK with insulin = 0.18
Lst (GeneID 36853) [DRSC07146]: replicate 1, z-score of dpERK with insulin = 1.07; replicate 2, z-score of dpERK with insulin = 0.3
